{"source": "PubChem BioAssay AID686937 (Drosophila RNAi Screening Center, 2013)", "purpose": "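Genes whose loss weakens secretory pathway function in fly cells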 (primary screen)", "cells": "Drosophila S2 cells expressing secreted horseradish peroxidase", "reagents": "long dsRNA against Drosophila genes", "duration": "about 5.5 days (5 days dsRNA, then 12 h reporter induction)", "challenge": "reporter expression induced after 5 days of dsRNA, read 12 h later; inducer not stated", "measured": "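After 5 days of dsRNA and 12 h of reporter induction, medium peroxidase read by chemiluminescence and scored as per-plate z-score; higher values mean more reporter released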", "direction": "z-score: higher = more reporter secreted into medium", "note": "The deposit covers about 23,000 reagents; shown is an unselected part of those with a known target gene and a result. 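Reduced-secretion tags in replicate 1 do not always agree with the z-scores; no criterion for assigning the tags was given.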 Names joined by + are all predicted targets of the reagent. Not all columns of the deposit are shown. Not stated in the record: the amount of reagent."}
The opening 3 records as a preview:
{"target": "CG15414", "amplicon": "DRSC00429", "z-score, replicate 1": 0.17}
{"target": "CG15414", "amplicon": "DRSC22353", "z-score, replicate 1": -0.49}
{"target": "nkt", "amplicon": "DRSC10144", "z-score, replicate 1": 0.53}

Main list, from the first entry:
{"target": "CG15414", "amplicon": "DRSC00429", "z-score, replicate 1": 0.17}
{"target": "CG15414", "amplicon": "DRSC22353", "z-score, replicate 1": -0.49}
{"target": "nkt", "amplicon": "DRSC10144", "z-score, replicate 1": 0.53}
{"target": "Cht7", "amplicon": "DRSC08538", "z-score, replicate 1": 0.23}
{"target": "Cht7", "amplicon": "DRSC21783", "z-score, replicate 1": -0.05}
{"target": "DIP2", "amplicon": "DRSC08582", "z-score, replicate 1": 0.08}
{"target": "CG14011", "amplicon": "DRSC02343", "z-score, replicate 1": 0.09}
{"target": "upSET", "amplicon": "DRSC11051", "z-score, replicate 1": 0.09}
{"target": "mRpL9", "amplicon": "DRSC15678", "z-score, replicate 1": 0.34}
{"target": "CG12375", "amplicon": "DRSC02163", "z-score, replicate 1": 0.34}
{"target": "dpn", "amplicon": "DRSC07605", "z-score, replicate 1": 0.11}
{"target": "CG12464", "amplicon": "DRSC06156", "z-score, replicate 1": 0.27}
{"target": "MSBP", "amplicon": "DRSC20146", "z-score, replicate 1": 0.41}
{"target": "Ilp6", "amplicon": "DRSC17906", "z-score, replicate 1": -6.47}
{"target": "CG8642", "amplicon": "DRSC07228", "z-score, replicate 1": 0.37}
{"target": "CG6144", "amplicon": "DRSC02934", "z-score, replicate 1": 0.58}
{"target": "CG5402", "amplicon": "DRSC15792", "z-score, replicate 1": 0.01}
{"target": "Fmo-2", "amplicon": "DRSC04983", "z-score, replicate 1": 0}
{"target": "Flacc", "amplicon": "DRSC20040", "z-score, replicate 1": -0.15}
{"target": "CG31157", "amplicon": "DRSC21832", "z-score, replicate 1": 0.36}
{"target": "dob", "amplicon": "DRSC19948", "z-score, replicate 1": 0.2}
{"target": "CG18231", "amplicon": "DRSC10307", "z-score, replicate 1": 0.12}
{"target": "ssx", "amplicon": "DRSC18492", "z-score, replicate 1": -1.64}
{"target": "CG4041", "amplicon": "DRSC18339", "z-score, replicate 1": 0.08}
{"target": "CG15128", "amplicon": "DRSC06550", "z-score, replicate 1": 0.16}
{"target": "asRNA:CR43463 + Pgant35A", "amplicon": "DRSC03557", "z-score, replicate 1": 0.19}
{"target": "CG4751", "amplicon": "DRSC02776", "z-score, replicate 1": 0.32}
{"target": "CG30480", "amplicon": "DRSC06736", "z-score, replicate 1": 0.23}
{"target": "CG18659", "amplicon": "DRSC06784", "z-score, replicate 1": -0.13}
{"target": "Cnx14D", "amplicon": "DRSC20214", "z-score, replicate 1": 0.23}
{"target": "CG13603", "amplicon": "DRSC14606", "z-score, replicate 1": 0.19}
{"target": "CG10395", "amplicon": "DRSC04840", "z-score, replicate 1": 0.24}
{"target": "Crag", "amplicon": "DRSC18454", "z-score, replicate 1": 0.26}
{"target": "sut2", "amplicon": "DRSC07701", "z-score, replicate 1": 0.4}
{"target": "Gbs-70E", "amplicon": "DRSC11055", "z-score, replicate 1": 0.4}
{"target": "NC2beta", "amplicon": "DRSC01895", "z-score, replicate 1": 0.25}
{"target": "mRpL40", "amplicon": "DRSC15749", "z-score, replicate 1": -0.06}
{"target": "CG10013", "amplicon": "DRSC14175", "z-score, replicate 1": 0.3}
{"target": "CG3726", "amplicon": "DRSC18320", "z-score, replicate 1": 0.05}
{"target": "CG31068", "amplicon": "DRSC13820", "z-score, replicate 1": 0.06}
